In PMC4403260:
No constants are given. Whether binding was seen depends on the method and setting. Binding seen in cells or lysates may run through a third protein. Some entries that bind do so weakly or less than the wild type. One block for each molecule: values may come before it.

Amino acid sequences for entries named in this document (tags omitted). A change or cut given only in a name is not applied to a line headed by its entry.
UniProt Q00416: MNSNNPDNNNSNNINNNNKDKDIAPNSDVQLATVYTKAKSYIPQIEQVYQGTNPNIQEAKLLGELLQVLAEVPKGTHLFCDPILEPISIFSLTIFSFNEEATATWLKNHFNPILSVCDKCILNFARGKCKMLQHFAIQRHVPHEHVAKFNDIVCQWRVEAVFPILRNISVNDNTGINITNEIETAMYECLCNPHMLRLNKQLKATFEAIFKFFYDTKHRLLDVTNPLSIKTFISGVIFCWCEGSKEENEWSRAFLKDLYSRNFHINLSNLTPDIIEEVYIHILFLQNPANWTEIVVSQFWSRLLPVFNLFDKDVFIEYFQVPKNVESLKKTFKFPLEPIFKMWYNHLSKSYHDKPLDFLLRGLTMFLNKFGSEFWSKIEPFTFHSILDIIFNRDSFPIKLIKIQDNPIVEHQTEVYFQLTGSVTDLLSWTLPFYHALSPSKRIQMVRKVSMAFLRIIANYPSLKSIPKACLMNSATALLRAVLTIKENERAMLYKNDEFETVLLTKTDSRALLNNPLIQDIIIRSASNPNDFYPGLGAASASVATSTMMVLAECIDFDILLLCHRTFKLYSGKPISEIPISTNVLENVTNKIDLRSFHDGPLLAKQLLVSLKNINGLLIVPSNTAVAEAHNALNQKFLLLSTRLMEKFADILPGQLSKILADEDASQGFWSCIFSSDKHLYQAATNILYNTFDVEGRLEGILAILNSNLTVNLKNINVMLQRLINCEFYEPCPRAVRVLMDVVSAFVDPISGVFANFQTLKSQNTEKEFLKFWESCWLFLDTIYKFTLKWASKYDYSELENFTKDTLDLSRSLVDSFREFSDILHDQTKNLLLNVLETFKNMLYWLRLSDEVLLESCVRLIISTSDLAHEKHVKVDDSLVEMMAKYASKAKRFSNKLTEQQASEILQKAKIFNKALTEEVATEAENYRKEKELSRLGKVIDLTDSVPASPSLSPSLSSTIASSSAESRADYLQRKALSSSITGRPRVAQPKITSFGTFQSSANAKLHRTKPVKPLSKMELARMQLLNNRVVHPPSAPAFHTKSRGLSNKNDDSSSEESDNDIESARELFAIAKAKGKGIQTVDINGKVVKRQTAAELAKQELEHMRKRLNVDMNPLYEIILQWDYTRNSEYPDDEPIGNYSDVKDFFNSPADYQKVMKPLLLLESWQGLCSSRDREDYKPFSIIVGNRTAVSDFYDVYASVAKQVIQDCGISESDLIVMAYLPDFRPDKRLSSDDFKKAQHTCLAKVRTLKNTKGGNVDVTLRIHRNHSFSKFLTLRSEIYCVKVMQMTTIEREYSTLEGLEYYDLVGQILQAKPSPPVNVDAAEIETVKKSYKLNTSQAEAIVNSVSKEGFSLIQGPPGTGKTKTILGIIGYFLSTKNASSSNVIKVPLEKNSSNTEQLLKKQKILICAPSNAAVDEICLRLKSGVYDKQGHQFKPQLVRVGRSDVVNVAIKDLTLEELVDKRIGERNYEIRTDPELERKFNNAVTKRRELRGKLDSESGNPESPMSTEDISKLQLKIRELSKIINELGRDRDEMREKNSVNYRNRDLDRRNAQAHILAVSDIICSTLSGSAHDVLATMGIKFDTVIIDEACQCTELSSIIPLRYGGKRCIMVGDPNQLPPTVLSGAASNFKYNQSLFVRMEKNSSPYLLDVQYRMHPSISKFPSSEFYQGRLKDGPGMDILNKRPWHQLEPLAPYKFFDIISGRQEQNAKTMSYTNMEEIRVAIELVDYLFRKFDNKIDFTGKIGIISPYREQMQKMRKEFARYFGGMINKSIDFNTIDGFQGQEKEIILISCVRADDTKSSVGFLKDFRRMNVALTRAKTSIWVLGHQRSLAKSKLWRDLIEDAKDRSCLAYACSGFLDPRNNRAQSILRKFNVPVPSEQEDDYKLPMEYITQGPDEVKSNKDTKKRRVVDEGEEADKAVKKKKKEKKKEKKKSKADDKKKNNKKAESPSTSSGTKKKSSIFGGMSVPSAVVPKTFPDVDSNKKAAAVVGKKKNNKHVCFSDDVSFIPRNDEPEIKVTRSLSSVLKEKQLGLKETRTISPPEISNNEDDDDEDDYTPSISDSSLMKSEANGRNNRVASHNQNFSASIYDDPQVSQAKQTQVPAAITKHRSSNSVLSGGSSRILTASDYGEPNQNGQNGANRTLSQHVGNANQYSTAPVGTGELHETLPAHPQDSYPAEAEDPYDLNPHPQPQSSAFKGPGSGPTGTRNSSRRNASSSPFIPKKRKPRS

Columns and labels:
[1] = molecular target: T1, Nrd1-TAP (S. cerevisiae) (UniProt P53617); experiment: co-IP; fractions coprecipitated with Nrd1-TAP from protein extracts of wild type and pcf11-9 yeast; Western blot with PAP, anti-Nab3 and anti-HA antibodies
T1 sequence: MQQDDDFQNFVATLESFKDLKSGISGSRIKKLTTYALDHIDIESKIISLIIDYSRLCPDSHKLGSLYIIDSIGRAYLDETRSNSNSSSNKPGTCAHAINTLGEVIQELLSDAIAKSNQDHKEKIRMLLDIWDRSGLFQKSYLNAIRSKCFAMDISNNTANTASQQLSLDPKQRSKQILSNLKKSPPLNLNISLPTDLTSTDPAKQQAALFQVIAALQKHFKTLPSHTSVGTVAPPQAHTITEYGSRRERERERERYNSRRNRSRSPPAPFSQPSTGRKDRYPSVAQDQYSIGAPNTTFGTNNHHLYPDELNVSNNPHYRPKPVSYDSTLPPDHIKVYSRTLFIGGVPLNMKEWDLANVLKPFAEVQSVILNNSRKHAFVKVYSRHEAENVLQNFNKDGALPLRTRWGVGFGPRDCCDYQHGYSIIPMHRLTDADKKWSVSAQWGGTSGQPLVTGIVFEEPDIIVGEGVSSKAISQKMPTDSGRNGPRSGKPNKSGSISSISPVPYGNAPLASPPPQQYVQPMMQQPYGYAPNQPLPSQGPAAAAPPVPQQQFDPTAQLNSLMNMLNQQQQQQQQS

[2] = molecular target: Sen1-R302W-myc (S. cerevisiae) (UniProt Q00416); experiment: co-IP; Sen1-R302W-myc precipitated with anti-myc antibody from protein extracts of wild type and pcf11-13 yeast; extracts incubated 2 h at 4°C with protein A and G magnetic beads; Western blot with anti-CTD CMA601 and anti-Nab3 antibodies

binding [1]: binds
Molecule: Sen1-HA (from UniProt Q00416 1-2231)

binding [2]: binds
binding [1]: binds
B1: Nab3 (protein, UniProt P38996 1-802)
chain: MSDENHNSDVQDIPSPELSVDSNSNENELMNNSSADDGIEFDAPEEEREAEREEENEEQHELEDVNDEEEEDKEEKGEENGEVINTEEEEEEEHQQKGGNDDDDDDNEEEEEEEEDDDDDDDDDDDDEEEEEEEEEEGNDNSSVGSDSAAEDGEDEEDKKDKTKDKEVELRRETLEKEQKDVDEAIKKITREENDNTHFPTNMENVNYDLLQKQVKYIMDSNMLNLPQFQHLPQEEKMSAILAMLNSNSDTALSVPPHDSTISTTASASATSGARSNDQRKPPLSDAQRRMRFPRADLSKPITEEEHDRYAAYLHGENKITEMHNIPPKSRLFIGNLPLKNVSKEDLFRIFSPYGHIMQINIKNAFGFIQFDNPQSVRDAIECESQEMNFGKKLILEVSSSNARPQFDHGDHGTNSSSTFISSAKRPFQTESGDMYNDDNGAGYKKSRRHTVSCNIFVKRTADRTYAIEVFNRFRDGTGLETDMIFLKPRMELGKLINDAAYNGVWGVVLVNKTHNVDVQTFYKGSQGETKFDEYISISADDAVAIFNNIKNNRNNSRPTDYRAMSHQQNIYGAPPLPVPNGPAVGPPPQTNYYQGYSMPPPQQQQQQPYGNYGMPPPSHDQGYGSQPPIPMNQSYGRYQTSIPPPPPQQQIPQGYGRYQAGPPPQPPSQTPMDQQQLLSAIQNLPPNVVSNLLSMAQQQQQQPHAQQQLVGLIQSMQGQAPQQQQQQLGGYSSMNSSSPPPMSTNYNGQNISAKPSAPPMSHQPPPPQQQQQQQQQQQQQQQQPAGNNVQSLLDSLAKLQK
